{"source": "PubChem BioAssay AID652259 (Drosophila RNAi Screening Center, 2013)", "aim": "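Genome-wide hunt for genes that control Wingless pathway activity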 (primary screen)", "system": "Drosophila clone 8 imaginal disc epithelial cells", "knock-down reagent": "long dsRNA against Drosophila genes", "challenge": "pathway stimulated by co-transfected Wingless expression plasmid", "read-out": "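Dual luciferase reads per well after Wingless plasmid stimulation: reporter firefly light and Renilla control light; activity is firefly divided by Renilla, a ratio not deposited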", "reading the numbers": "firefly reporter light: higher = more Wg reporter light, before normalisation; Renilla control light: higher = more transfected or surviving cells", "rule for the call": "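Strong candidates differ from their plate mean by at least two out of four per-plate statistical tests; weak candidates meet just one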", "meaning of the calls": "active = candidate regulator (raises or lowers reporter); inactive = not a candidate", "note": "The screen tested about 22,000 reagents; this is a random part of those with a known target gene and a result. Over the whole deposit, 233 (1.1%) are marked active. 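Light values are raw, unnormalised plate reads; the ratio scores behind the reporter calls were not deposited.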 A number with no mark means an inactive call. A plus sign joins genes that one reagent is predicted to hit. Not stated in the record: the amount of reagent, the time to read-out, the dose of the treatment."}
{"target gene":"CG13065","dsRNA":"DRSC09948","firefly reporter light, replicate 1":8421,"Renilla control light, replicate 1":3211}
{"target gene":"Pig1","dsRNA":"DRSC18698","firefly reporter light, replicate 1":15280,"Renilla control light, replicate 1":7584}
{"target gene":"t","dsRNA":"DRSC17815","firefly reporter light, replicate 1":20027,"Renilla control light, replicate 1":9349}
{"target gene":"SmydA-3","dsRNA":"DRSC02565","firefly reporter light, replicate 1":1920,"firefly reporter light, replicate 2":6966,"Renilla control light, replicate 1":888,"Renilla control light, replicate 2":3156}
{"target gene":"SmydA-3","dsRNA":"DRSC02566","firefly reporter light, replicate 1":2562,"firefly reporter light, replicate 2":4576,"Renilla control light, replicate 1":903,"Renilla control light, replicate 2":2259}
{"target gene":"Mppe","dsRNA":"DRSC07296","firefly reporter light, replicate 1":6128,"Renilla control light, replicate 1":2192}
{"target gene":"ebo","dsRNA":"DRSC18787","firefly reporter light, replicate 1":1523,"firefly reporter light, replicate 2":8304,"Renilla control light, replicate 1":672,"Renilla control light, replicate 2":1786}
{"target gene":"Prp16","dsRNA":"DRSC19538","firefly reporter light, replicate 1":3698,"firefly reporter light, replicate 2":3778,"Renilla control light, replicate 1":832,"Renilla control light, replicate 2":1320}
{"target gene":"Prp16","dsRNA":"DRSC19542","firefly reporter light, replicate 1":13286,"Renilla control light, replicate 1":5353}
{"target gene":"skd","dsRNA":"DRSC11898","firefly reporter light, replicate 1":12637,"Renilla control light, replicate 1":4836}
{"target gene":"Hsdl2","dsRNA":"DRSC15839","firefly reporter light, replicate 1":2124,"firefly reporter light, replicate 2":5424,"Renilla control light, replicate 1":1149,"Renilla control light, replicate 2":1834}
{"target gene":"CG43318","dsRNA":"DRSC14999","firefly reporter light, replicate 1":15016,"Renilla control light, replicate 1":3728}
{"target gene":"CG43191","dsRNA":"DRSC05326","firefly reporter light, replicate 1":16528,"Renilla control light, replicate 1":11261}
{"target gene":"Ptpmeg2","dsRNA":"DRSC18277","firefly reporter light, replicate 1":18635,"Renilla control light, replicate 1":8301}
{"target gene":"Ptpmeg2","dsRNA":"DRSC18278","firefly reporter light, replicate 1":15402,"Renilla control light, replicate 1":6410}
{"target gene":"CheA7a","dsRNA":"DRSC17965","firefly reporter light, replicate 1":17625,"Renilla control light, replicate 1":10464}
{"target gene":"lncRNA:CR43314","dsRNA":"DRSC01216","firefly reporter light, replicate 1":24632,"Renilla control light, replicate 1":11110}
{"target gene":"lncRNA:CR43314","dsRNA":"DRSC21354","firefly reporter light, replicate 1":2.92e5,"firefly reporter light, replicate 2":3.88e5,"Renilla control light, replicate 1":1.36e5,"Renilla control light, replicate 2":1.43e5}
{"target gene":"Acam + CG17770","dsRNA":"DRSC14110","firefly reporter light, replicate 1":14648,"Renilla control light, replicate 1":16665}
{"target gene":"Acam + CG17770","dsRNA":"DRSC15264","firefly reporter light, replicate 1":11856,"Renilla control light, replicate 1":12282}
{"target gene":"Cp7Fa","dsRNA":"DRSC18032","firefly reporter light, replicate 1":18781,"Renilla control light, replicate 1":7675}
{"target gene":"Cp7Fa","dsRNA":"DRSC18033","firefly reporter light, replicate 1":18448,"Renilla control light, replicate 1":7596}
{"target gene":"ninaA","dsRNA":"DRSC00830","firefly reporter light, replicate 1":12757,"Renilla control light, replicate 1":4512}
{"target gene":"GatA","dsRNA":"DRSC16956","firefly reporter light, replicate 1":2179,"firefly reporter light, replicate 2":6603,"Renilla control light, replicate 1":465,"Renilla control light, replicate 2":2410}
{"target gene":"CG13692","dsRNA":"DRSC00361","firefly reporter light, replicate 1":2720,"firefly reporter light, replicate 2":6470,"Renilla control light, replicate 1":1334,"Renilla control light, replicate 2":2602}

Just “Renilla control light, replicate 1” (4 entries from above):
SmydA-3 [DRSC02565]: 888
SmydA-3 [DRSC02566]: 903
Mppe [DRSC07296]: 2192
ebo [DRSC18787]: 672
